These are yes or no findings as the source states them, for the method shown. For part of these data: In cells and extracts the contact can be indirect. Some binding calls cover weakened binding; strength is not graded here.
Key:
[1] = target: GST-fused C-terminal domain of RSV P protein, P(161–241) (human respiratory syncytial virus) (UniProt P03421); assay: pull-down; preparative co-purification: N co-expressed with GST-P(161–241) in E. coli, clarified lysate on glutathione-Sepharose 4B beads, 4 °C, 3 h; 20 mM Tris-HCl pH 8.5, 150 mM NaCl washes
[2] = target: RSV N-RNA complex (full-length N protein in ring-shaped complexes with bacterial RNA) (human respiratory syncytial virus) (UniProt P03418); assay: fluorescence polarisation; competition: unlabeled P peptide varied against 200 nM F11 on 10 µM N-RNA; Tris pH 8 without salt; Hill equation; Ki from the IC50-to-Ki server; both purified
[3] = target: RSV N-RNA complex (full-length N protein in ring-shaped complexes with bacterial RNA) (human respiratory syncytial virus) (UniProt P03418); assay: fluorescence polarisation; competition: unlabeled P7E varied against 200 nM F7E on 10 µM N-RNA; Tris pH 8 without salt; Hill equation; Ki from the IC50-to-Ki server; both purified
[4] = target: RSV N-RNA complex (full-length N protein in ring-shaped complexes with bacterial RNA) (human respiratory syncytial virus) (UniProt P03418); assay: fluorescence polarisation; competition: unlabeled P5E varied against 200 nM F5E on 10 µM N-RNA; Tris pH 8 without salt; Hill equation; Ki from the IC50-to-Ki server; both purified
[5] = target: RSV N-RNA complex (full-length N protein in ring-shaped complexes with bacterial RNA) (human respiratory syncytial virus) (UniProt P03418); assay: fluorescence polarisation; competition: unlabeled P_(10EE) varied against 200 nM BCN_(10EE) on 1 µM N-RNA; Tris pH 8 buffer; Hill equation; Ki from the IC50-to-Ki server; both purified
[6] = target: RSV N-RNA complex (full-length N protein in ring-shaped complexes with bacterial RNA) (human respiratory syncytial virus) (UniProt P03418); assay: fluorescence polarisation; competition: unlabeled pP11 varied against 200 nM BCN_(11EE) on 1 µM N-RNA; Tris pH 8 buffer; Hill equation; Ki from the IC50-to-Ki server; both purified

Sequences of proteins named here, by UniProt entry; tags and fusion partners are left off. Residues count along the entry.
UniProt P03421, residues 161-241: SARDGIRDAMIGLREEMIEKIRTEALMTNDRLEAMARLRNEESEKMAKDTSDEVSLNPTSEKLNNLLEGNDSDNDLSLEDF
UniProt P03418: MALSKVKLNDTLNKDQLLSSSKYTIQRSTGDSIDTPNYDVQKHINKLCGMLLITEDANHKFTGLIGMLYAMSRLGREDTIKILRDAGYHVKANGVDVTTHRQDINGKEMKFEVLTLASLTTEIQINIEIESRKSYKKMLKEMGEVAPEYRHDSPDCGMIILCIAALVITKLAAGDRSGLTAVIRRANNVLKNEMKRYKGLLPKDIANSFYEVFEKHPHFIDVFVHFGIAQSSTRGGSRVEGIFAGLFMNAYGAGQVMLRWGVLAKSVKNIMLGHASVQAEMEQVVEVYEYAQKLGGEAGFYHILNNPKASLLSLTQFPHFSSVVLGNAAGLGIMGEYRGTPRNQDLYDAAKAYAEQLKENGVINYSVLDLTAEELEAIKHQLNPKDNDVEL

Molecule: RSV N-RNA complex (full-length N protein in ring-shaped complexes with bacterial RNA) (from UniProt P03418 1-391)
- binding [1]: binds

Molecule: DSDNDLSLEDF (fluorescein-5-thiourea (FTU) on the N-terminus) [F11 (fluorescein-5-thiourea-labelled RSV P11 peptide)]
- binding [2]: binds

Molecule: DLELEDF (fluorescein-5-thiourea (FTU) on the N-terminus) [F7E (FTU-labelled RSV P 7-mer, Ser237Glu)]
- binding [3]: binds

Molecule: ELEDF (fluorescein-5-thiourea (FTU) on the N-terminus) [F5E (FTU-labelled RSV P 5-mer, Ser237Glu)]
- binding [4]: binds

Molecule: EDNDLELEDF (dicyano BODIPY FL on the N-terminus) [BCN_(10EE) (dicyano BODIPY FL-labelled RSV P 10-mer, Ser232Glu/Ser237Glu)]
- binding [5]: binds

Molecule: DEDNDLELEDF (dicyano BODIPY FL on the N-terminus) [BCN_(11EE) (dicyano BODIPY FL-labelled RSV P 11-mer, Ser232Glu/Ser237Glu)]
- binding [6]: binds

Reference: article PMC9820559, “Investigation of the Fuzzy Complex between RSV Nucleoprotein and Phosphoprotein to Optimize an Inhibition Assay by Fluorescence Polarization” (International Journal of Molecular Sciences, 2022)
